Values from PubChem BioAssay AID504808 (Drosophila RNAi Screening Center, 2011).

Aim: 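Fly genes required to hold E2F transcription in check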 (primary screen)
Cells: Drosophila S2 cells
Knock-down reagent: long dsRNA against Drosophila genes
Read-out: 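Dual luciferase plate measurements; E2F-specific signal taken as firefly over Renilla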
Direction: E2F firefly: higher = more E2F reporter activity; Renilla normaliser: higher = more normaliser reporter signal
Active means: 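Called active if the normalised E2F reporter went up by over 50%; the cutoff is arbitrary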
The deposit covers about 21,000 reagents; shown is a random part of those that have a named target and a result. Over the whole deposit, 18 (0.084%) got an active call. 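Raw counts without plate normalisation, one of two replicates; the ratio scores behind the calls were not deposited.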 Not stated in the record: the amount of reagent, the time to read-out.

gene	amplicon	E2F firefly, rep 1	Renilla normaliser, rep 1	activity call
Vsp37A (GeneID 31006)	DRSC18794	1.19e5	5645	inactive
CG7382 (GeneID 33772)	DRSC03052	82945	3574	inactive
mRpL41 (GeneID 36688)	DRSC06257	1.05e5	4301	inactive
CG15439 (GeneID 33651)	DRSC00453	43368	3726	inactive
CG16711 (GeneID 39135)	DRSC10220	1.10e5	6309	inactive
Slu7 (GeneID 43427)	DRSC14729	66088	6210	inactive
CG5359 (GeneID 41222)	DRSC15780	1.63e5	5719	inactive
CG31933 (GeneID 326176)	DRSC00457	1.62e5	6051	inactive
CG13427 (GeneID 37316)	DRSC06389	1.39e5	4733	inactive
Arl1 (GeneID 39745)	DRSC09667	1.57e5	7549	inactive
spi (GeneID 35253)	DRSC03618	98699	4254	inactive
FipoQ (GeneID 43475)	DRSC15413	1857	1060	inactive
CG33080 (GeneID 31491)	DRSC18080	1.09e5	5459	inactive
CG33080 (GeneID 31491)	DRSC18081	1.08e5	5208	inactive
CG33080 (GeneID 31491)	DRSC18285	1.46e5	6285	inactive
EbpIII (GeneID 49821)	DRSC04638	1.09e5	4787	inactive
CG32246 (GeneID 317936)	DRSC08115	1.23e5	4040	inactive
Cog3 (GeneID 33562)	DRSC00585	76307	3640	inactive
CycG (GeneID 43724)	DRSC14324	1670	992	inactive
Cpr30F (GeneID 318997)	DRSC02908	79525	3993	inactive
mRpL38 (GeneID 32375)	DRSC19734	1.68e5	6244	inactive
gNacalpha (GeneID 33279)	DRSC00654	1.59e5	6125	inactive
CG3078 (GeneID 31211)	DRSC18531	1563	908	inactive
deltaCOP (GeneID 45250)	DRSC18760	1292	1076	inactive
bsf (GeneID 35100)	DRSC02035	83027	3500	inactive
CG33342 (GeneID 2768684)	DRSC13662	76095	2334	inactive
CG15638 (GeneID 34768)	DRSC01875	92140	4151	inactive
RfC3 (GeneID 34423)	DRSC03411	1.63e5	5646	inactive
CG3348 (GeneID 50082)	DRSC15480	1.26e5	7319	inactive
Tsp29Fa (GeneID 34211)	DRSC03232	1.48e5	5279	inactive
CG13708 (GeneID 38582)	DRSC08317	85285	4184	inactive
TwdlW (GeneID 42075)	DRSC15540	1.27e5	6304	inactive
CG34136 (GeneID 4379892)	DRSC01833	1.17e5	5032	inactive
bou (GeneID 31644)	DRSC17924	1.20e5	5684	inactive
bma (GeneID 5740442)	DRSC09896	1.22e5	6035	inactive
bma (GeneID 5740442)	DRSC10164	1.19e5	7391	inactive
CG17754 (GeneID 31873)	DRSC18131	7059	784	inactive
Rep (GeneID 37246)	DRSC07526	72915	3307	inactive
Dcr-2 (GeneID 36993)	DRSC06992	1.49e5	4603	inactive
Spn75F (GeneID 317912)	DRSC09589	64267	2371	inactive
CG12729 (GeneID 31515)	DRSC17884	37980	3740	inactive
Mrtf (GeneID 38338)	DRSC08263	80667	3670	inactive
Mrtf (GeneID 38338)	DRSC08410	91481	3932	inactive
Mrtf (GeneID 38338)	DRSC08411	97140	4048	inactive

Part of the list above in another layout.
| gene | amplicon | E2F firefly, rep 1 | Renilla normaliser, rep 1 | activity call |
| --- | --- | --- | --- | --- |
| bou (GeneID 31644) | DRSC17924 | 1.20e5 | 5684 | inactive |
| bma (GeneID 5740442) | DRSC09896 | 1.22e5 | 6035 | inactive |
| bma (GeneID 5740442) | DRSC10164 | 1.19e5 | 7391 | inactive |
| CG17754 (GeneID 31873) | DRSC18131 | 7059 | 784 | inactive |
| Rep (GeneID 37246) | DRSC07526 | 72915 | 3307 | inactive |
| Dcr-2 (GeneID 36993) | DRSC06992 | 1.49e5 | 4603 | inactive |
| Spn75F (GeneID 317912) | DRSC09589 | 64267 | 2371 | inactive |
| CG12729 (GeneID 31515) | DRSC17884 | 37980 | 3740 | inactive |
| Mrtf (GeneID 38338) | DRSC08263 | 80667 | 3670 | inactive |
| Mrtf (GeneID 38338) | DRSC08410 | 91481 | 3932 | inactive |

Additional results follow.
gene	amplicon	E2F firefly, rep 1	Renilla normaliser, rep 1	activity call
CG18789 (GeneID 317813)	DRSC02696	94211	3960	inactive
Arp3 (GeneID 38898)	DRSC09669	92729	3962	inactive
Mgat4a (GeneID 39608)	DRSC09326	1.25e5	4368	inactive
Mgat4a (GeneID 39608)	DRSC11070	1.47e5	7703	inactive
Cpr12A (GeneID 32309)	DRSC19722	1.36e5	5984	inactive
unc79 (GeneID 42310)	DRSC15746	70847	3628	inactive
Drsl5 (GeneID 38409)	DRSC08159	93486	4714	inactive
Vta1 (GeneID 38204)	DRSC08604	98563	4672	inactive
Kif19A (GeneID 41717)	DRSC16576	47506	3353	inactive
CG3528 (GeneID 33436)	DRSC00611	1.68e5	5504	inactive
GLaz (GeneID 36447)	DRSC07431	1.01e5	4148	inactive
Or67a (GeneID 39109)	DRSC11240	1.30e5	7376	inactive
CG1172 (GeneID 40647)	DRSC12182	1.35e5	7083	inactive
Prx4 (GeneID 53577)	DRSC08668	99470	4221	inactive
wrd (GeneID 42169)	DRSC16337	60670	4487	inactive
wrd (GeneID 42169)	DRSC16344	1.52e5	7866	inactive
CG3285 (GeneID 33547)	DRSC00589	90291	3804	inactive
CG11634 (GeneID 35434)	DRSC03700	1.01e5	4281	inactive
bif (GeneID 32119)	DRSC18901	85969	3398	inactive
bif (GeneID 32119)	DRSC20313	8314	728	inactive
Hap40 (GeneID 32507)	DRSC20085	7626	664	inactive
CG5913 (GeneID 43132)	DRSC15916	1.22e5	6243	inactive
CG15546 (GeneID 43659)	DRSC15084	1.23e5	6793	inactive
Wee1 (GeneID 33965)	DRSC03635	1.54e5	4879	inactive
CG34386 (GeneID 5740303)	DRSC06467	1.38e5	5060	inactive
CG34386 (GeneID 5740303)	DRSC06468	1.47e5	5161	inactive
hry (GeneID 38995)	DRSC11353	55902	3211	inactive
CG9259 (GeneID 35372)	DRSC03174	90753	3989	inactive
Polr2K (GeneID 5740790)	DRSC05535	97482	4407	inactive
Npc2a (GeneID 33374)	DRSC00698	1.74e5	5685	inactive
CG4653 (GeneID 32650)	DRSC19909	1.62e5	6865	inactive
Art9 (GeneID 41698)	DRSC16584	1.15e5	6092	inactive
mus101 (GeneID 48309)	DRSC19388	1.24e5	5088	inactive
sbr (GeneID 43944)	DRSC19770	85340	4437	inactive
sbr (GeneID 43944)	DRSC20368	59135	4871	inactive
CG14500 (GeneID 37087)	DRSC06471	1.37e5	4600	inactive
KdelR (GeneID 34427)	DRSC03353	80912	3415	inactive
CG15098 (GeneID 37174)	DRSC06527	1.32e5	5074	inactive
CG15564 (GeneID 43696)	DRSC15102	1.14e5	5549	inactive
CtsK1 (GeneID 39547)	DRSC08742	1.56e5	7387	inactive
MBD-R2 (GeneID 41498)	DRSC14180	2.03e5	9055	inactive
tey (GeneID 40146)	DRSC11042	1.31e5	6255	inactive
Sec61beta (GeneID 46080)	DRSC07548	98850	3682	inactive
kappaTry (GeneID 36215)	DRSC06146	1.01e5	4327	inactive
galectin (GeneID 33162)	DRSC00305	1.72e5	5613	inactive
CG12546 (GeneID 40483)	DRSC11676	92994	6470	inactive
CG15760 (GeneID 32324)	DRSC19725	1.21e5	6018	inactive
Rsph1 (GeneID 34712)	DRSC02864	1.03e5	4923	inactive
mRpL42 (GeneID 36050)	DRSC06235	1.37e5	4346	inactive
CG6661 (GeneID 39556)	DRSC10687	66377	3189	inactive
CG14418 (GeneID 31275)	DRSC18637	91394	4439	inactive
CG15236 (GeneID 35595)	DRSC04970	1.63e5	4966	inactive
zip (GeneID 38001)	DRSC04725	1.27e5	5274	inactive
MFS14 (GeneID 46085)	DRSC06524	68193	3478	inactive
cue (GeneID 38174)	DRSC08248	91297	3631	inactive
RpL22-like (GeneID 37684)	DRSC04582	1.04e5	4587	inactive
Syn1 (GeneID 40424)	DRSC11803	1.38e5	6596	inactive
Syn1 (GeneID 40424)	DRSC11804	1.32e5	5660	inactive
SMC2 (GeneID 36653)	DRSC07544	3038	157	inactive
CG30046 (GeneID 36334)	DRSC06691	99764	4792	inactive
CG14657 (GeneID 40602)	DRSC12219	1.29e5	6445	inactive
CG14657 (GeneID 40602)	DRSC12243	83599	3335	inactive
CG12783 (GeneID 42019)	DRSC14538	1.17e5	6586	inactive
